Results published in publication PMC6660064.
Results are given in words; binding and its absence hold for the method and conditions named. Sequences can lack the tags named with a protein. Blank lines part the entries; values can stand above or below the binder they belong to.

Key:
[1] = target: T1, recombinant mouse IL15Rα(33–205)-Fc chimera (muIL15RαFc) (mouse), Q60819; assay: condition: muIL15RαFc:muIL15 biolegend ratio of 29:1; SEC; proteins mixed in PBS and incubated at 37°C for 20 minutes (alternative conditions in S2 Fig: 4°C 20 h, RT 15 h, 37°C 0.5 h); molar ratios varied; Superdex 200 increase 10/300 GL, PBS, 0.75 mL/min; both purified; details: remark: other sources report otherwise
T1 chain: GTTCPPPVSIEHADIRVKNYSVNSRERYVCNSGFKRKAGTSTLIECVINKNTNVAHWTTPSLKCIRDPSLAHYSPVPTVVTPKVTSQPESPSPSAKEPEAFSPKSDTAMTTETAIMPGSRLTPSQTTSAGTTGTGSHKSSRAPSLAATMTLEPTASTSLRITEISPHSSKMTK

[2] = target: T1, recombinant mouse IL15Rα(33–205)-Fc …; assay: condition: muIL15RαFc:muIL15 peprotech ratio of 0.8:1; SEC; proteins mixed in PBS and incubated at 37°C for 20 minutes (alternative conditions in S2 Fig: 4°C 20 h, RT 15 h, 37°C 0.5 h); molar ratios varied; Superdex 200 increase 10/300 GL, PBS, 0.75 mL/min; both purified; details: remark: other sources report otherwise

binding [1]: no binding
B1: recombinant mouse IL15 (muIL15 biolegend), P48346 49-162 (ligand)
chain: NWIDVRYDLEKIESLIQSIHIDTTLYTDSDFHPSCKVTAMNCFLLELQVILHEYSNMTLNETVRNVLYLANSTLSSNKNVAESGCKECEELEEKTFTEFLQSFIRIVQMFINTS

binding [2]: no binding
B2: recombinant mouse IL15 (muIL15 peprotech), P48346 49-162 (ligand)
chain: B1 chain
